From PMC6265779
No constants are given. Whether binding was seen depends on the method and setting. Some results given as binding are weak or reduced against the parent protein; the word gives no strength.

B1: φ6 protein P2 (protein, UniProt P11124 1-665)
chain: MPRRAPAFPLSDIKAQMLFANNIKAQQASKRSFKEGAIETYEGLLSVDPRFLSFKNELSRYLTDHFPANVDEYGRVYGNGVRTNFFGMRHMNGFPMIPATWPLASNLKKRADADLADGPVSERDNLLFRAAVRLMFSDLEPVPLKIRKGSSTCIPYFSNDMGTKIEIAERALEKAEEAGNLMLQGKFDDAYQLHQMGGAYYVVYRAQSTDAITLDPKTGKFVSKDRMVADFEYAVTGGEQGSLFAASKDASRLKEQYGIDVPDGFFCERRRTAMGGPFALNAPIMAVAQPVRNKIYSKYAYTFHHTTRLNKEEKVKEWSLCVATDVSDHDTFWPGWLRDLICDELLNMGYAPWWVKLFETSLKLPVYVGAPAPEQGHTLLGDPSNPDLEVGLSSGQGATDLMGTLLMSITYLVMQLDHTAPHLNSRIKDMPSACRFLDSYWQGHEEIRQISKSDDAILGWTKGRALVGGHRLFEMLKEGKVNPSPYMKISYEHGGAFLGDILLYDSRREPGSAIFVGNINSMLNNQFSPEYGVQSGVRDRSKRKRPFPGLAWASMKDTYGACPIYSDVLEAIERCWWNAFGESYRAYREDMLKRDTLELSRYVASMARQAGLAELTPIDLEVLADPNKLQYKWTEADVSANIHEVLMHGVSVEKTERFLRSVMPR
B2: φ6 protein P4 (protein, UniProt P11125 1-332)
chain: MPIVVTQAHIDRVGIAADLLDASPVSLQVLGRPTAINTVVIKTYIAAVMELASKQGGSLAGVDIRPSVLLKDTAIFTKPKAKSADVESDVDVLDTGIYSVPGLARKPVTHRWPSEGIYSGVTALMGATGSGKSITLNEKLRPDVLIRWGEVAEAYDELDTAVHISTLDEMLIVCIGLGALGFNVAVDSVRPLLFRLKGAASAGGIVAVFYSLLTDISNLFTQYDCSVVMVVNPMVDAEKIEYVFGQVMASTVGAILCADGNVSRTMFRTNKGRIFNGAAPLAADTHMPSMDRPTSMKALDHTSIASVAPLERGSVDTDDRNSAPRRGANFSL
B3: φ6 protein P8 (protein, UniProt P07579 1-149)
chain: MLLPVVARAAVPAIESAIAATPGLVSRIAAAIGSKVSPSAILAAVKSNPVVAGLTLAQIGSTGYDAYQQLLENHPEVAEMLKDLSFKADEIQPDFIGNLGQYREELELVEDAARFVGGMSNLIRLRQALELDIKYYGLKMQLNDMGYRS

target: T1, φ6 protein P1 (bacteriophage φ6) (UniProt P11126); assay: asymmetrical flow field-flow fractionation (AF4) with SDS-PAGE of fractions; Triton X-114-extracted φ6 virions (NC1 input, NC2 input); 10 mM potassium phosphate pH 7.2, 1 mM MgCl2, 0.1 mM CaCl2, 150 mM NaCl; 22 °C; proteins of the late-eluting NC peak seen by Coomassie-stained SDS-PAGE
T1 sequence: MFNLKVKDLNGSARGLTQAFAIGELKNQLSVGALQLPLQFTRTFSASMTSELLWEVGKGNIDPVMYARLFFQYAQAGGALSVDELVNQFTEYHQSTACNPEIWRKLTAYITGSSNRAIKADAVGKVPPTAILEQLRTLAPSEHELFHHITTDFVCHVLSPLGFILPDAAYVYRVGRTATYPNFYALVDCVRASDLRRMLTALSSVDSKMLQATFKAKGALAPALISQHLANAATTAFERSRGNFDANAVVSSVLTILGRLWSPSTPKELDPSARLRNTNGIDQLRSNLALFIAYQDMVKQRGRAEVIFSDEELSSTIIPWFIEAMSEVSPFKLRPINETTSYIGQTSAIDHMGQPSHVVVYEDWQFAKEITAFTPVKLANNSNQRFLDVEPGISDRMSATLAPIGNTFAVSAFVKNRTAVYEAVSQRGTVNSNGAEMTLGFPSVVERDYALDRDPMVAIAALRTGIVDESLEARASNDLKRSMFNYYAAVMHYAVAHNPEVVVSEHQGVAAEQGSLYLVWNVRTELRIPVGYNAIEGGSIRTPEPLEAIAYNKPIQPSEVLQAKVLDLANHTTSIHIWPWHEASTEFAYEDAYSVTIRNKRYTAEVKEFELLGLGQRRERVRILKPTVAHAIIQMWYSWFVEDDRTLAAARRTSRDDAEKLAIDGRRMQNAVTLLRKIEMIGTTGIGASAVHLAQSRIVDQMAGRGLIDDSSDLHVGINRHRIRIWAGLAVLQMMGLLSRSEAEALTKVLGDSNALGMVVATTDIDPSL

Binder	binding
B1	binds
B2	binds
B3	binds

target: T1, φ6 protein P1 (bacteriophage φ6); assay: asymmetrical flow field-flow fractionation (AF4) with SDS-PAGE of fractions; NC (NC2 input or AF4-purified NC) treated with 25 mM EGTA, 1 mM ATP, RT, 30 min; AF4 in 10 mM potassium phosphate pH 7.2, 1 mM MgCl2, 150 mM NaCl, 20 mM EGTA; 22 °C

Binder	binding
B1	binds
B2	binds
B3	no binding (condition: with 25 mM EGTA (Ca2+ chelation))
